Substitutions are numbered along the chain they refer to. Results are given in words; binding and its absence hold for the method and conditions named. Binding seen in cells or lysates may run through a third protein. Some binding calls cover weakened binding; strength is not graded here. Tags and fused reporters may be left off the sequences shown.
Key:
[1] = target: T1, FAAP20, Flag-tagged, in vitro transcribed and translated (UniProt Q6NZ36); assay: co-IP; Flag-FAAP20 and HA-FBW7 in vitro transcribed and translated (250 ng plasmids, TnT T7 Quick Coupled Master Mix, 30 C, 70 min), then co-immunoprecipitation
T1 sequence: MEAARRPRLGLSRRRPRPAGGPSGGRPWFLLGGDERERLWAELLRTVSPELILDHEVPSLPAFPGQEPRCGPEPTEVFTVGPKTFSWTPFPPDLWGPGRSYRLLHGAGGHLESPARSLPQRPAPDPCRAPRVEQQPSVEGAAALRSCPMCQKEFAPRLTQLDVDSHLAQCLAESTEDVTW

Protein sequences, listed by entry. Tags and fused reporters are not part of them.
UniProt Q969H0: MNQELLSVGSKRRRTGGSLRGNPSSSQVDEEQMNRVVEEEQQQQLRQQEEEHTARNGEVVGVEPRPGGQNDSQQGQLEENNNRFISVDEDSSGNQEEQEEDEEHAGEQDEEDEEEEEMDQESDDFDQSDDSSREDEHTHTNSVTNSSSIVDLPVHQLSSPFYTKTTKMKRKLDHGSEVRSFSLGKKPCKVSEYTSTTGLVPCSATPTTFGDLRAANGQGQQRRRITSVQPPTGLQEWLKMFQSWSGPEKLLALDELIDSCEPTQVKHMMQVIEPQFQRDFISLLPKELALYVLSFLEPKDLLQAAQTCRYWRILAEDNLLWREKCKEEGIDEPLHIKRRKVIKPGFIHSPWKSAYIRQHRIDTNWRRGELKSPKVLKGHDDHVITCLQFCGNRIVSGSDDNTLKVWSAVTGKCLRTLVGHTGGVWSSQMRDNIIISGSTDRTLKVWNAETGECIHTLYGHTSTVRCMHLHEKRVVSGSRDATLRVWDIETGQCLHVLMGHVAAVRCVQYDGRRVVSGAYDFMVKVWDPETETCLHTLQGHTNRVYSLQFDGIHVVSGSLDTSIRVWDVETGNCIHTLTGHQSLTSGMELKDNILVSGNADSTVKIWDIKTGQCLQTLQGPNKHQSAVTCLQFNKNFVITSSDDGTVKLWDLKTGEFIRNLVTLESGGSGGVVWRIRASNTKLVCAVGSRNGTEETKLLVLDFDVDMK

[2] = target: T2, FAAP20 (Fanconi Anemia-Associated Protein, 20 kDa), wild-type, tagged, expressed in 293T cells (UniProt Q6NZ36); assay: co-IP; 293T cells co-expressing HA-FBW7 and tagged FAAP20 (WT or SA), 10 uM MG132 for 6 h, lysed in NETN150 (1 % NP40, 150 mM NaCl, 0.1 mM EDTA, 50 mM Tris pH 7.5) with phosphatase and protease inhibitors; anti-Flag M2 affinity gel 4 h, five washes; Western blot
T2 sequence: T1 sequence

[3] = target: T3, FAAP20 S113A/S117A (SA) mutant, tagged, expressed in 293T cells (UniProt Q6NZ36); assay: as above
T3 sequence: T1 sequence with S113A, S117A

| binding [1] | binding [2] | binding [3] | Substance |
| --- | --- | --- | --- |
| binds | – | – | FBW7, HA-tagged, in vitro transcribed and translated (from UniProt Q969H0 1-707) |
| – | binds | no binding | FBW7 (F-box and WD repeat domain-containing 7), HA-tagged, expressed in 293T cells (from UniProt Q969H0 1-707) |

Source: article PMC5094957
